Experimental data taken from article PMC6281615.
No constants are given. Whether binding was seen depends on the method and setting. In cells and extracts the contact can be indirect. Some entries that bind do so weakly or less than the wild type. For some assays here: Where a sequence is shown, tags or fusion partners need not be part of it.

Protein sequences, listed by entry. Tags and fused reporters are not part of them.
UniProt Q96GD4: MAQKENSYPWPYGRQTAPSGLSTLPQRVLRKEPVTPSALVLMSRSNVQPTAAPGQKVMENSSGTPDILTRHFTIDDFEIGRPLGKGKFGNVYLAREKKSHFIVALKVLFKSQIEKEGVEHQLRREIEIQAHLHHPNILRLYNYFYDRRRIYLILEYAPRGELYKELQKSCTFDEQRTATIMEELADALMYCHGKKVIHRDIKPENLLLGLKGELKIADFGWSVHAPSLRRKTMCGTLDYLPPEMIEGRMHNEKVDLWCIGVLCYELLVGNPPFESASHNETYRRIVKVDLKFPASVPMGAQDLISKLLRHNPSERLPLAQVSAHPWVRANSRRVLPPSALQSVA
UniProt O70126: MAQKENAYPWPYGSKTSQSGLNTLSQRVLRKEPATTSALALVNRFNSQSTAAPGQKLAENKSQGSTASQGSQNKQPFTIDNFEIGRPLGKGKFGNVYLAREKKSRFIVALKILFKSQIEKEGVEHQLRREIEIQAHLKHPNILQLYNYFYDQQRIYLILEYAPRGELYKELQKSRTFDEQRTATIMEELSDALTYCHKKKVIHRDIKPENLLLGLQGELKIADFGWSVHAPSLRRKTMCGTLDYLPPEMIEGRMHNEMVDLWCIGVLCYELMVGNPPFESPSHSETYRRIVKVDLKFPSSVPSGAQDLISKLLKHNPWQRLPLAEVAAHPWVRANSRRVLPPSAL

Columns and labels:
[1] = biological target: T1, Endogenous CREPT (MGC803 cells) (human (endogenous in MGC803)) (UniProt Q9NQG5); assay: co-IP; endogenous proteins; IP with an anti-CREPT antibody in MGC803 cells and mouse embryonic stem cells
T1 sequence: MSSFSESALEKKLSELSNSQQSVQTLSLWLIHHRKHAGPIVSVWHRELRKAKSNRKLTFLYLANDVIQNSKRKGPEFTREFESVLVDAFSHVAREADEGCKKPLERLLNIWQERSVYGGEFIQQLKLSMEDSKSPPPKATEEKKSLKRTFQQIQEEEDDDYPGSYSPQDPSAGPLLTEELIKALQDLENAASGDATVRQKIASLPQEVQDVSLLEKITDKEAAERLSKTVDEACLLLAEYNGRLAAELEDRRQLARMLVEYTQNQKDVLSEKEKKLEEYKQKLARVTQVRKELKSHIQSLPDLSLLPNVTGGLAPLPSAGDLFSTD

[2] = biological target: T2, Endogenous CREPT (cell line not stated) (UniProt Q9NQG5); assay: co-IP; endogenous proteins; cells synchronized by double thymidine block and released; IP with anti-CREPT antibody at different phases of the cell cycle (phases other than S)
T2 sequence: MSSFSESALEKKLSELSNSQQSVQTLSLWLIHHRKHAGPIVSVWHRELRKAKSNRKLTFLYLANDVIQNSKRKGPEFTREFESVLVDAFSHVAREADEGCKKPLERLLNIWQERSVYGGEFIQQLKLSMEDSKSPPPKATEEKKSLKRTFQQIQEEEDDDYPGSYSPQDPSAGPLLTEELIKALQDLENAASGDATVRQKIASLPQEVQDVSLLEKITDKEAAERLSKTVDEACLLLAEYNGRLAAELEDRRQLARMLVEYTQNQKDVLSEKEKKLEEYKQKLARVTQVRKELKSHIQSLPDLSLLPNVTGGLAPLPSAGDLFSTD

[3] = biological target: T2, Endogenous CREPT (cell line not stated); assay: condition: only cells in S phase after release from double thymidine block; co-IP; endogenous proteins; cells synchronized by double thymidine block and released; IP with anti-CREPT antibody; cells in S phase
[4] = biological target: T3, Endogenous CREPT (mouse embryonic stem cells) (mouse (endogenous in mES cells)) (UniProt Q9CSU0); assay: co-IP; endogenous proteins; IP with an anti-CREPT antibody in MGC803 cells and mouse embryonic stem cells
T3 sequence: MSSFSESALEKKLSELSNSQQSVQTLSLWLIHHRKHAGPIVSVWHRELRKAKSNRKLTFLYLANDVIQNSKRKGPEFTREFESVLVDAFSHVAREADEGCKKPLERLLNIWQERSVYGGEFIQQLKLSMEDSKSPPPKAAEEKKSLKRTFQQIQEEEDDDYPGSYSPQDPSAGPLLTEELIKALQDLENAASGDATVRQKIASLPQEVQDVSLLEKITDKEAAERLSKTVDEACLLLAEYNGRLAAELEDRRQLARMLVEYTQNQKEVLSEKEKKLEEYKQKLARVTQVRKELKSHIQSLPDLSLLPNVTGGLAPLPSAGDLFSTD

GST-CREPT = biological target: T4, GST-CREPT (UniProt Q9NQG5); assay: pull-down; GST pull-down with purified GST and GST-CREPT; HA-Aurora B overexpressed in HEK293T cells; only the target purified
T4 sequence: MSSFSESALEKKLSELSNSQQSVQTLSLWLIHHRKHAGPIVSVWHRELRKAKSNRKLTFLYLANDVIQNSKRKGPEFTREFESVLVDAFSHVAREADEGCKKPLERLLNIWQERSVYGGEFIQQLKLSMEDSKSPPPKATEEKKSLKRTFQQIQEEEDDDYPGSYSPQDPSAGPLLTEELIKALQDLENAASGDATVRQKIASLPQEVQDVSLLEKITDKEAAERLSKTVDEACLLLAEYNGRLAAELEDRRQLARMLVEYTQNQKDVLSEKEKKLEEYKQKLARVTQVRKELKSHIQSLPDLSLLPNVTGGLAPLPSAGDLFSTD

[5] = biological target: T5, Myc-tagged full length CREPT (UniProt Q9NQG5); assay: co-IP; tagged CREPT (Flag or Myc) and HA-Aurora B co-expressed in HEK293T cells; IP with an antibody against the tag of one partner, western blot for the tag of the other
T5 sequence: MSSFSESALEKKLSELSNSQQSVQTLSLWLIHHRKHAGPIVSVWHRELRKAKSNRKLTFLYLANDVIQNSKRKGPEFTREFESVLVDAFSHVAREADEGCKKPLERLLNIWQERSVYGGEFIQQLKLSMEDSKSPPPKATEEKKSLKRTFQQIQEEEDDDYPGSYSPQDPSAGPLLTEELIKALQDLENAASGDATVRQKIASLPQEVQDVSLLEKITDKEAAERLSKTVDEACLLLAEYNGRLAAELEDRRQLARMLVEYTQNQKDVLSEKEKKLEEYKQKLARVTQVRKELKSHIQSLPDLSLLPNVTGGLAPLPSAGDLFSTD

Flag-CREPT = biological target: T6, Flag-CREPT (UniProt Q9NQG5); assay: as above
T6 sequence: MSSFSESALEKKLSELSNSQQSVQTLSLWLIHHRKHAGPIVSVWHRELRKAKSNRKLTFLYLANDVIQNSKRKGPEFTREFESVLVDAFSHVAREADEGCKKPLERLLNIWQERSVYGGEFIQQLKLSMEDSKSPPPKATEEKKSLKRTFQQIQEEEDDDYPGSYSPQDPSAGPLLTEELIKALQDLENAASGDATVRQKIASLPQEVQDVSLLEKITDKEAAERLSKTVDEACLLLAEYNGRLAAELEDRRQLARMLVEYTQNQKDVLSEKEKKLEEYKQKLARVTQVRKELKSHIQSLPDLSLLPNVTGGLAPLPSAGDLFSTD

HA-Aurora B = HA-Aurora B (UniProt Q96GD4); assay: as above

For “Endogenous Aurora B (MGC803 cells) (from UniProt Q96GD4 1-344) (enzyme)”, the binding [1] was “binds”.

“Endogenous Aurora B (cell line not stated) (from UniProt Q96GD4 1-344) (enzyme)” was tested, and the binding [2] was “binds” and the binding [3] was “no binding”.

“Endogenous Aurora B (mouse embryonic stem cells) (from UniProt O70126 1-345) (enzyme)” was tested, and the binding [4] was “binds”.

For “HA-Aurora B (from UniProt Q96GD4 1-344) (enzyme)”, the binding (GST-CREPT) was “binds”, the binding [5] was “binds” and the binding (Flag-CREPT) was “binds”.

B1: Flag-CREPT (protein, UniProt Q9NQG5 1-326)
chain: MSSFSESALEKKLSELSNSQQSVQTLSLWLIHHRKHAGPIVSVWHRELRKAKSNRKLTFLYLANDVIQNSKRKGPEFTREFESVLVDAFSHVAREADEGCKKPLERLLNIWQERSVYGGEFIQQLKLSMEDSKSPPPKATEEKKSLKRTFQQIQEEEDDDYPGSYSPQDPSAGPLLTEELIKALQDLENAASGDATVRQKIASLPQEVQDVSLLEKITDKEAAERLSKTVDEACLLLAEYNGRLAAELEDRRQLARMLVEYTQNQKDVLSEKEKKLEEYKQKLARVTQVRKELKSHIQSLPDLSLLPNVTGGLAPLPSAGDLFSTD
With B1 the binding (HA-Aurora B) was “binds”.
